These results are taken from PMC5030094, “Human DNA2 possesses a cryptic DNA unwinding activity that functionally integrates with BLM or WRN helicases”.

Construct, isoform or probe ends are uncertain for at least one entry. The comparison behind a weaker result is the experiment's own reference, which may not be listed here. At least one verdict rests on a figure or table, not on a statement of the authors. Tags and fusion partners may be left off the protein sequences shown. The direction of at least one scale is not stated here.

The data set deals with T1, hDNA2 D277A (nuclease-deficient) (Homo sapiens) (UniProt P51530).
T1 sequence (looked up, limits assumed): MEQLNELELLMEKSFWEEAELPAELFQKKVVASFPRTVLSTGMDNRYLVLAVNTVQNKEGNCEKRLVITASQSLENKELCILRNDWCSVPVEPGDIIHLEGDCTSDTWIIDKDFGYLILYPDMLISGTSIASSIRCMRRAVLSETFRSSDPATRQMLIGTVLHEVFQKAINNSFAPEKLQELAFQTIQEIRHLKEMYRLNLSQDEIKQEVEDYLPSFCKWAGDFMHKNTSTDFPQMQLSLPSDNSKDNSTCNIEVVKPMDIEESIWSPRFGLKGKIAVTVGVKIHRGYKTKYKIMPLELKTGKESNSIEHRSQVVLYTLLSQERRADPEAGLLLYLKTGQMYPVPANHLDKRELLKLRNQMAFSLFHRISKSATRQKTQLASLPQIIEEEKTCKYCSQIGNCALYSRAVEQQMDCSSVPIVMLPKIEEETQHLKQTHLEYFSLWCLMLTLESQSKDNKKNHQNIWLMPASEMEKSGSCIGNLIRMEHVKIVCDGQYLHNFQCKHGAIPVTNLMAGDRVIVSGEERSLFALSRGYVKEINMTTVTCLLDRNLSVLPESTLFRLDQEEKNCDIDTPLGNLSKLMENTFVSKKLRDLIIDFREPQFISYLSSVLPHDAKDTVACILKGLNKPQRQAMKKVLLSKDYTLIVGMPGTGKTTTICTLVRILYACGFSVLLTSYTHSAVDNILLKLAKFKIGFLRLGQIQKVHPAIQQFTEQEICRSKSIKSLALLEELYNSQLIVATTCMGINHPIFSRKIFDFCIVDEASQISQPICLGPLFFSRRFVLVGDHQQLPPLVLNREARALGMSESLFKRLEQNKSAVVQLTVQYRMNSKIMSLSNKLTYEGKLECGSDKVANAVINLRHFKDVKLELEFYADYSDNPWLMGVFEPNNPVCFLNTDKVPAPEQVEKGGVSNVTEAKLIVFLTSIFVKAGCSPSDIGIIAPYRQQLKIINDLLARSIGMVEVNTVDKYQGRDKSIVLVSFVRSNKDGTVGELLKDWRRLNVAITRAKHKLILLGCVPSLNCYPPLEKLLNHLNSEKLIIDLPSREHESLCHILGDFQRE
Nature of the data set: EMSA. The conditions noted are these: no RPA, 25 mM Tris-acetate pH 7.5, 2 mM Mg acetate, 1 mM DTT, 0.1 mg/ml BSA, 1 nM DNA, 37 C 30 min, 6% PAGE in TAE on ice, recombinant protein, protein details: N-terminal 6xHis, C-terminal FLAG.

Regarding “AAAAAAAAAAAAAAAAAAATAACCTAGCGATGGAACGTAAGTCGCGAT / GACGTCATAGACGATTACATTGCTAGGACATGCTGTCTAGAGACTATCGCGACTTACGTTCCATCGCTAGGTTATTTTTTTTTTTTTTTTTTT [5' overhang (45 nt/48 bp)]”, the binding result (label: 5' 32P on X12-3 HJ1S) is reported as “binds”.
“GACGTCATAGACGATTACATTGCTAGGACATGCTGTCTAGAGACTATCGC (double strand) [dsDNA (50 bp)]”: the binding result (label: 5' 32P on X12-3) is “binds more weakly”.
For the sequence “GACGTCATAGACGATTACATTGCTAGGACATGCTGTCTAGAGACTATCGC / GCGATAGTCTCTAGACAGCATGTCCTAGCAA [5' overhang (19 nt/31 bp)]”, the binding signal (fold weaker than ssDNA) (label: 5' 32P on X12-3) was 8.
As to “GACGTCATAGACGATTACATTGCTAGGACATGCTGTCTAGAGACTATCGC / GCGATAGTCTCTAGACAGCATGTCCTAGCAAGCCAGAATTCGGCAGGCTA [Y-structure (19 nt/31 bp)]”, the binding result (label: 5' 32P on X12-3) is listed as “binds”.
For the sequence “GCTGGTTTAGGACGCACTTG [ssDNA 20 nt (Primer 308)]”, the binding result (label: 5' 32P, single-stranded DNA) is “binds more weakly”.
With “GGATTACATTGCTAGGACATGCTGTCTAGAGACTATCGC / GCGATAGTCTCTAGACAGCATGTCCTAGCAA [5' overhang (30 nt/31 bp)]”, the binding result (label: 5' 32P on #292) was “binds”.
For “TTGCTAGGACATGCTGTCTAGAGACTATCGC / GCGATAGTCTCTAGACAGCATGTCCTAGCAAGCCAGAATTCGGCAGGCTA [3' overhang (19 nt/31 bp)]”, where the note is “label: 5' 32P on X12-3 SC”, the binding signal (fold weaker than ssDNA) amounted to 12.
